Reference: PubChem BioAssay AID651768 (National Center for Advancing Translational Sciences (NCATS), 2012)
In all, about 360,000 compounds went through this assay and about 1,700 (0.47%) were called active. The shares of active, inactive and inconclusive entries below differ from those in the screen. Calls come from the whole dose curve; as a rule, active = well fitted inhibition curve with a large enough effect; inconclusive = small, poorly fitted or top-dose-only effect; inactive = no such curve, though single readings can be large or run the other way. Potencies of inconclusive entries are doubtful fits and often do not repeat.

By UniProt entry, the sequences of proteins in these tests, tags left out.
UniProt Q14191, whole entry, looked up: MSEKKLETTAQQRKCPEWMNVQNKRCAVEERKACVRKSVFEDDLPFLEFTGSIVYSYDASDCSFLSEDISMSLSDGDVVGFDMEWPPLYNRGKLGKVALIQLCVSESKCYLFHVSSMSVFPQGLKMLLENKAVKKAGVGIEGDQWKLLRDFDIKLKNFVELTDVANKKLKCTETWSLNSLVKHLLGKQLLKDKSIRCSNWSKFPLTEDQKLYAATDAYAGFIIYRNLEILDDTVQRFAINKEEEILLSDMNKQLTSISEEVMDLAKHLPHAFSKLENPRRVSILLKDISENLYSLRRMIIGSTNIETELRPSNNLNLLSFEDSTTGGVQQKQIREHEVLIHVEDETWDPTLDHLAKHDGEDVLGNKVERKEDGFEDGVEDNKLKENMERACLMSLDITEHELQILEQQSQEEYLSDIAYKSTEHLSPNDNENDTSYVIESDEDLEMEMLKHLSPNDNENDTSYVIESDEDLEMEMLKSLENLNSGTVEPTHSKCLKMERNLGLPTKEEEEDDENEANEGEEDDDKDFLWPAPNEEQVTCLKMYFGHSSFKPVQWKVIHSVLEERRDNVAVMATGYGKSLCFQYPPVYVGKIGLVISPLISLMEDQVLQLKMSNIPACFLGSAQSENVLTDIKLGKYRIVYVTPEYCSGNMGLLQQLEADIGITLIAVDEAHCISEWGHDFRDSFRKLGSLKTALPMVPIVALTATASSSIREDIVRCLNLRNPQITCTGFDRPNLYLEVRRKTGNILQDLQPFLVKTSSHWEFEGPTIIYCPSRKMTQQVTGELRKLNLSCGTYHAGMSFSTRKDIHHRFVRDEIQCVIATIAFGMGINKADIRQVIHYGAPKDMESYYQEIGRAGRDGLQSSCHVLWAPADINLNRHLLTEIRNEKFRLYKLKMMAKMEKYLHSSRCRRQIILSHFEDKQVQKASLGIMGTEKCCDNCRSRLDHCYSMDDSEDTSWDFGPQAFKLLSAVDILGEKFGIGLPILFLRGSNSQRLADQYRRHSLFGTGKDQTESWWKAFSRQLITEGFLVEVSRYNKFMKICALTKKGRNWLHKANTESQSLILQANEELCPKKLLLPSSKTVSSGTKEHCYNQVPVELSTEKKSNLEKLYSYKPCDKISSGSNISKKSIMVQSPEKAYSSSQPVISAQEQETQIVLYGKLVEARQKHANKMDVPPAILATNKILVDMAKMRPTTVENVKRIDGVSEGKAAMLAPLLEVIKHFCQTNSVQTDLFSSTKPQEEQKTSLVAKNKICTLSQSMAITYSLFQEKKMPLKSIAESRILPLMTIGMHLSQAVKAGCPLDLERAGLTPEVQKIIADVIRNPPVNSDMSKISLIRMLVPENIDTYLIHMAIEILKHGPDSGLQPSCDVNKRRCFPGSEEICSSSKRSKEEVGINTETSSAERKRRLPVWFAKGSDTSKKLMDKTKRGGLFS

Target: Bifunctional 3'-5' exonuclease/ATP-dependent helicase WRN (Homo sapiens) (UniProt Q14191)
Experiment: qHTS for Inhibitors of WRN Helicase; note: nearly all actives have a fitted effect of over 55% in size
Settings: WRN helicase unwinding, fluorescent forked duplex, kinetic; activity change, negative = inhibition: at 114 µM (top of the series) unless noted
In short: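 Primary qHTS, 1536-well format. 20 nM WRN + compound, 15 min RT; start with 100 nM forked fluorophore/quencher duplex, 2 mM ATP (final); kinetic read ex 525/em 598 nm.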
% is set by controls: 0 for no effect and ±100 for the full control effect; potency is the fitted concentration of half-maximal effect.

SMILES	Potency	activity change, negative = inhibition
O=C(NC1(O)C(=O)c2ccccc2C1=O)c1ccc(C(F)(F)F)cc1	inconclusive: 11.2 µM [inhibitor, full curve, poor fit]	–
COc1cccc(/C=C2\C(=O)N(c3cccc(C)c3)C(=O)c3ccccc32)c1	inconclusive: 50.1 µM [inhibitor, partial curve]	–
O=c1c(O)c(-c2ccc(O)c(O)c2)oc2cc(O)ccc12	active: 2.38 µM	–
Cc1cccc(NC(=O)CSc2nnc(-c3ccco3)c(-c3ccco3)n2)c1	active: 31.6 µM	–
CCCC(C)NC(=O)c1c2c(nc3ccccc13)CCC2 (centres undefined)	–	inactive: -3.45% [at 11.6 µM]
O=C(CSc1ccsc1[N+](=O)[O-])Nc1cc(F)ccc1F	inconclusive: 25.1 µM [inhibitor, single point]	–
COc1ccc(N2C(=O)CC(NNC(=O)c3ccco3)C2=O)cc1 (centres undefined)	inconclusive: 89.1 µM [inhibitor, single point]	–
Cc1ccc(NC(=O)CN(C)C(=O)Cc2c[nH]c3ccccc23)cc1	inconclusive: 39.8 µM [inhibitor, single point]	–
CCCOc1cccc(C2C(C(=O)c3cccs3)=C(O)C(=O)N2Cc2cccnc2)c1 (centres undefined)	inconclusive: 100 µM [inhibitor, single point]	–
c1ccc2c(c1)[nH]c1nc3nncn3nc12	inconclusive: 70.8 µM [inhibitor, partial curve, poor fit]	–
CCOc1ccc(NC(=O)NNC(=O)c2ccc(CC)s2)cc1	–	inactive: -0.456% [at 11.6 µM]
Cc1ccc(-c2csc3nc(SCC(=O)Nc4ccc(Cl)c(C(=O)O)c4)[nH]c(=O)c23)cc1	inconclusive: 35.5 µM [inhibitor, partial curve]	–
CCOC(=O)C1=C(O)/C(=C/c2ccc(-c3ccccc3C(=O)O)o2)SC1=Nc1ccc(C)cc1	inconclusive: 20 µM [inhibitor, full curve, poor fit]	–
CN(C)CCNC(=O)c1cccc(-c2cnc3c(NC=O)cc(-c4cccc(C(F)(F)F)c4)cn23)c1	inconclusive: 39.8 µM [inhibitor, single point]	–
Cc1ccc(-n2c(C)nn(Cc3ccc([N+](=O)[O-])cc3)c2=O)cc1	–	inactive: -4.37%
Cn1c(SCC(=O)c2cc(Cl)c(Cl)s2)nnc1-c1ccco1	inconclusive: 50.1 µM [inhibitor, partial curve]	–
C=CCn1c(O)c(/C=C2\C=NN=C2c2ccccc2)sc1=S	–	inactive: 1.72%
CCCOc1ccccc1/C=C1\SC(N)=NC1=O	–	inactive: -1.22%
O=S(=O)(Nc1nc2ccccc2nc1N1CCc2ccccc2C1)c1ccc(Cl)cc1	inconclusive: 11.2 µM [inhibitor, partial curve]	–
N#Cc1ccccc1NC(=O)COc1ccccc1C(=O)Nc1ccccc1	–	inactive: -12.5%
Cc1ccccc1N=Cc1cc2c(cc1[N+](=O)[O-])OCO2	–	inactive: -22% [at 57.1 µM]
Cc1noc(C)c1COC(=O)c1ccc(S(=O)(=O)NCc2ccco2)cc1	inconclusive: 89.1 µM [inhibitor, single point]	–
C#CCN1C(=O)S/C(=C/C=C/c2ccc(N(C)C)cc2)C1=O	active: 35.5 µM	–

Entries of single compounds, quoted from the list:
Cc1ccc(-c2csc3nc(SCC(=O)Nc4ccc(Cl)c(C(=O)O)c4)[nH]c(=O)c23)cc1 is listed as Potency: inconclusive: 35.5 µM [inhibitor, partial curve]
Cc1noc(C)c1COC(=O)c1ccc(S(=O)(=O)NCc2ccco2)cc1 is listed as Potency: inconclusive: 89.1 µM [inhibitor, single point]
O=c1c(O)c(-c2ccc(O)c(O)c2)oc2cc(O)ccc12 is listed as Potency: active: 2.38 µM

Single entries from the entries so far:
For activity change, negative = inhibition, `C=CCn1c(O)c(/C=C2\C=NN=C2c2ccccc2)sc1=S` is listed with inactive: 1.72%
For Potency, `COc1cccc(/C=C2\C(=O)N(c3cccc(C)c3)C(=O)c3ccccc32)c1` is listed with inconclusive: 50.1 µM [inhibitor, partial curve]

(listing goes on)

SMILES	Potency	activity change, negative = inhibition
Cc1ccccc1NC(=S)NC(=O)c1cncc(Br)c1	inconclusive: 28.2 µM [inhibitor, single point]	–
COc1ccc2c(CC(=O)NCc3ccc4c(c3)OCO4)coc2c1	inconclusive: 56.2 µM [inhibitor, partial curve]	–
CC(=O)c1ccc(OCc2cc(C(=O)N3CC[C@@H]4CCCC[C@H]4C3)no2)cc1	inconclusive: 79.4 µM [inhibitor, single point]	–
Cc1ccc(S(=O)(=O)Nc2ccc(O)c3ccccc23)c(C)c1	active: 50.1 µM	–
O=C(CCC1CCCC1)N1CCN(C2CCCC2)CC1	inconclusive: 50.1 µM [inhibitor, partial curve]	–
N=C1/C(=C\c2ccc(SCc3ccco3)o2)C(=O)N=C2SC=NN12	active: 56.2 µM	–
Cc1ccc(/C=c2\sc3nc(-c4ccccc4Br)nn3c2=O)o1	inconclusive: 56.2 µM [inhibitor, partial curve]	–
N#C/C(=C\c1ccc(-c2cccc(C(F)(F)F)c2)o1)C(=O)Nn1cnnc1	inconclusive: 11.2 µM [inhibitor, partial curve]	–
O=C(NCc1cccc(C(F)(F)F)c1)c1csc([C@@H]2C[C@H](O)[C@@H](CO)O2)n1	–	inactive: 3.94%
CCCNC(=O)c1ccc(C2SCC(=O)N2Cc2ccccc2)cc1 (centres undefined)	–	inactive: -4.59%
O=[N+]([O-])c1ccccc1S(=O)(=O)Oc1ccc(C(=S)N2CCOCC2)cc1	–	inactive: -6.63%
COc1cc(CCc2ccccc2)c(C(=O)O)c(O)c1C/C=C(/C)CCC=C(C)C	inconclusive: 50.1 µM [inhibitor, partial curve]	–
Cc1cc(/C=C2\C(=N)N3N=C(c4ccco4)SC3=NC2=O)c(C)n1Cc1ccccc1	inconclusive: 50.1 µM [inhibitor, partial curve]	–
COC(=O)/C=C\C(=O)Nc1cccc([N+](=O)[O-])c1	active: 28.2 µM	–
CCOC(=O)c1sc(NC(C)=O)nc1C	–	inactive: -0.58% [at 57.1 µM]
O=C(CCC(=O)N/N=C/c1cc(Cl)cc(Cl)c1O)NCc1ccccc1	inconclusive: 56.2 µM [inhibitor, partial curve]	–
COc1ccc(/C=N/Nc2ncnc3sc4c(c23)CCCC4)cc1O	inconclusive: 89.1 µM [inhibitor, partial curve, poor fit]	–
O=C(N/N=C/c1ccc2c(c1)OCO2)c1ccc(Br)o1	inconclusive: 50.1 µM [inhibitor, partial curve]	–
O=C(O)CSc1cc(C(=O)c2ccccc2O)cn2c(=O)c3c(-c4ccccc4)csc3nc12	inconclusive: 50.1 µM [inhibitor, partial curve]	–
CCOCCCN1CC(C(=O)NCc2ccc3c(c2)OCO3)CC1=O (centres undefined)	inconclusive: 39.8 µM [inhibitor, single point]	–
Nc1c(C(=O)O)ccc2c1C(=O)c1ccccc1C2=O	inconclusive: 50.1 µM [inhibitor, partial curve]	–
Cc1ccc(C(=O)C=CC=Cc2ccccc2)cc1	–	inactive: -15.5%
Cc1ccc(C(=O)Nc2ccccc2C(=O)O)cc1S(=O)(=O)Nc1ccc(Br)cc1	inconclusive: 11.2 µM [inhibitor, full curve, poor fit]	–

SMILES	Potency	activity change, negative = inhibition
Cc1cc(F)ccc1NCc1ccc([N+](=O)[O-])cc1	–	inactive: -0.659%
O=c1[nH]c(NC2CCN(S(=O)(=O)c3ccccc3C(F)(F)F)CC2)nc2c1CCCC2	inconclusive: 22.4 µM [inhibitor, single point]	–
O=C1c2cc([N+](=O)[O-])cc3cc([N+](=O)[O-])cc(c23)C(=O)N1c1ccccn1	inconclusive: 11.2 µM [inhibitor, partial curve]	–
C(=C\n1nnc2ccccc21)/c1ccc[nH]1	inconclusive: 50.1 µM [inhibitor, partial curve]	–
CC1=NN(c2ccccc2)C(=O)/C1=C/c1ccc(-c2ccc(C)c(C(=O)O)c2)o1	inconclusive: 79.4 µM [inhibitor, partial curve]	–
O=C(NCc1ccccc1)C(=O)Nc1nc(C23CC4CC(CC(C4)C2)C3)cs1	–	inactive: -29.5% [at 57.1 µM]
Cc1[nH]nc2c1C(c1ccc(-c3ccc(Cl)cc3)o1)C(C#N)=C(N)O2 (centres undefined)	inconclusive: 50.1 µM [inhibitor, partial curve]	–
O=C(O)/C(=C\c1ccccc1Cl)c1ccc(S(=O)(=O)N2CCCCC2)s1	–	inactive: -13.9% [at 57.1 µM]
Cc1ccccc1OCCOC(=O)c1ccc(S(=O)(=O)N2CCCC2)cc1	–	inactive: -1.11%
Cc1cc(-c2nc3c4c5c(sc4[nH]c(=O)n3n2)CCC5)c(C)o1	inconclusive: 44.7 µM [inhibitor, partial curve]	–
O=C(COC(=O)/C=C/c1ccco1)NCc1ccc2c(c1)OCO2	–	inactive: -8.22% [at 11.6 µM]
Cc1cc(N2CCOCC2)ccc1/C=C\[N+](=O)[O-]	inconclusive: 20 µM [inhibitor, full curve, poor fit]	–
CCN(CC)CCOc1ccc2c(c1)C(=NO)c1cc(OCCN(CC)CC)ccc1-2	active: 35.5 µM	–
COc1cc(C)c2sc3ccccc3c(=O)c2c1NCCN(C)C	active: 35.5 µM	–
COc1ccc(C2Nc3ccccc3C(=O)N2c2ccc(F)cc2)cc1CSc1ccccn1 (centres undefined)	inconclusive: 10 µM [inhibitor, partial curve]	–
O=C(O)c1c[nH]c2c([N+](=O)[O-])cccc2c1=O	inconclusive: 25.1 µM [inhibitor, full curve, poor fit]	–
COc1ccccc1NCC(O)COc1ccc(C(C)(C)C)cc1 (centres undefined)	inconclusive: 22.4 µM [inhibitor, full curve]	–
N#CC(C#N)=C1C=CC=CN1/C(=C\c1ccccc1Cl)C(=O)c1ccccc1	active: 50.1 µM	–
COc1ccc(CN2CCN(Cc3ccco3)CC2)cc1	inconclusive: 22.4 µM [inhibitor, full curve]	–
O=c1[nH][nH]c2cc(=O)n(-c3ccc(Cl)cc3)nc12	inconclusive: 50.1 µM [inhibitor, partial curve]	–
COc1cccc(CNc2nnnn2C)c1	inconclusive: 8.91 µM [inhibitor, full curve, poor fit]	–
CN(C)CCNC(=O)c1cccc2nc3c(ccc4ccccc43)nc12	inconclusive: 50.1 µM [inhibitor, partial curve]	–
O=C(Nc1ccc2c(c1)OCO2)c1cc2ncc(Br)cn2n1	inconclusive: 50.1 µM [inhibitor, partial curve]	–
